These are yes or no findings as the source states them, for the method shown.
Molecular target: Ixodes scapularis Salp15 fragment 23-135 (refolded, folded form) (Ixodes scapularis) (UniProt Q95WZ4)
Experiment: SEC-MALS; Superdex 75 10/300 GL, 25 °C, 20 mM Tris-HCl pH 7.5, 300 mM NaCl, 0.5 mM TCEP, 0.03% NaN3; 100 µL of Salp15 at 1.9 g/L injected, 0.5 mL/min; both purified

Substance: Ixodes scapularis Salp15 fragment 23-135 (refolded, folded form) (from UniProt Q95WZ4 23-135)
- binding: no binding (tested: 1.9 g/L)

— PMC8954417
